Assay results as given in patent US20210309745A1 (TAYU HUAXIA BIOTECH MEDICAL GROUP, published 2021).
These are yes or no findings as the source states them, for the method shown. Some binding calls cover weakened binding; strength is not graded here.

Amino acid sequences for entries named in this document (tags omitted). A change or cut given only in a name is not applied to a line headed by its entry.
UniProt Q9NZQ7: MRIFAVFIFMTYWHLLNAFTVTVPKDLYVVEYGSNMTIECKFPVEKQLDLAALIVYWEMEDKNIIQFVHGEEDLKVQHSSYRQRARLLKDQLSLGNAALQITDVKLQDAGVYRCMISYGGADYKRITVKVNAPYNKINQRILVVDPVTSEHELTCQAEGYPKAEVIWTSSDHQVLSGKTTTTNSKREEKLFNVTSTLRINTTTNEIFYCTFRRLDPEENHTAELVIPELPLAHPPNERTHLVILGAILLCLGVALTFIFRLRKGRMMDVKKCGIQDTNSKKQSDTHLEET

Tests used:
[1] = molecular target: hPD-L1 (antigen of the Fortebio Octet assay) (human) (UniProt Q9NZQ7); assay: Fortebio Octet sensorgrams, concentrations not given
[2] = molecular target: human PD-L1 on transfected CHO cells (CHO/hPD-L1) (human) (UniProt Q9NZQ7); assay: FACS on hPD-L1 (cells not named)
[3] = molecular target: human PD-L1 on transfected CHO cells (CHO/hPD-L1) (human) (UniProt Q9NZQ7); assay: FACS on hPD-L1; the cells are not named in the text or on the sheet

Measured: binding

B1: anti-PD-L1 IgG1 (parental antibody of Example 3) (antibody, V domains shown)
VH: EVQLQQSGAELVKPGASVKLSCTASGFNIKDTYMYWVKQRPEQGLECIGRIDPANDNTKYDPKFQGKATITADTSSNTAYVQLASLTSEDTAVYYCARAKNLLNYFDYWGQGTTLTVSS
VL: DIQMTQSPSSLSASLGERVTLSCRASQEISGYLSWLQQKPDGTIKRLIYATSTLDSGVPKRFSGSRSGSDYSLTISSLESEDFADYYCLQYAIYPLTFGAGTKLELKR
notes: IgG1; also called parental control antibody
binds: [1] | [2] | [3]
